No constants are given. Whether binding was seen depends on the method and setting. Some binding calls cover weakened binding; strength is not graded here.
These binders were tested against biotinylated huCD137-6xHis (human) (UniProt Q07011) (assay: ELISA, Fab captured by anti-Fd, biotinylated huCD137 (y axis unlabelled, 0.00-0.75; no negative control on the sheet)).

By UniProt entry, the sequences of proteins in these tests, tags left out. Residues count along the entry.
UniProt Q07011, residues 24-186: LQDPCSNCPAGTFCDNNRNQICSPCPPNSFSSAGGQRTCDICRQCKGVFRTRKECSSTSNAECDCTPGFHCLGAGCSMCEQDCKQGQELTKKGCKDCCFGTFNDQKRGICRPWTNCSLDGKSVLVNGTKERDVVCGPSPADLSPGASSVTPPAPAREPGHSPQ

binding	Binder
binds	B21-51 (Fab, V domains shown) VH: EVQLVESGGGLVQPGGSLRLSCAASGFTFSDFYMAWVRQAPGKGLEWVANINYDGSSTYYLDSLKSRFIISRDNAKNILYLQMSSLRAEDTAVYYCAREGDEGWYFDVWGQGTTVTVSS VL: DIQMTQSPSSLSASVGDRVTITCKASQDVSTAVAWYQQKPGKAPKLLIYSASYRYTGVPDRFSGSGSGTDFTLTISSLQPEDFAVYYCQQHYSNPWTFGQGTKLEIK
binds	B21-69 (Fab, V domains shown) VH: EVQLVESGGGLVQPGGSLRLSCTASGFTFSDFYMAWVRQAPGKGLEWVANINYDGSSTYYLDSLKSRFTISRDNAKNILYLQMNSLRAEDTAVYYCAREGDEGWYFDVWGQGTTVTVSS VL: DIQMTQSPSSLSASVGDRVSITCKASQDVSTAVAWYQQKPGKAPKLLIYSASYRYTGVPSRFSGSGSGTDFTLTISSLQPEDFAVYYCQQHYSNPWTFGQGTKLEIK
binds	B21-61 (Fab, V domains shown) VH: EVQLVESGGGLVQPGGSLRLSCAASGFTFSDFYMAWVRQAPGKGLEWVANINYDGSSTYYLDSLKSRFTISRDNAKNSLYLQMQSLRAEDTAVYYCAREGDEGWYFDVWGQGTTVTVSS VL: DIQMTQSPSSLSASVGDRVSITCKASQDVSTAVAWYQQKPGKAPKLLIYSASYRYTGVPDRFSGSGSGTDFTLTISSLQPEDFATYYCQQHYSNPWTFGQGTKLEIK
binds	B21-72 (Fab, V domains shown) VH: EVQLVESGGGLVQPGGSLRLSCAASGFTFSDFYMAWVRQAPGKGLEWVANINYDGSSTYYLDSLKSRFTISRDNAKNILYLQMSSLRAEDTAVYYCAREGDEGWYFDVWGQGTTVTVSS VL: DIQMTQSPSSLSASVGDRVSITCKASQDVSTAVAWYQQKPGKAPKLLIYSASYRYTGVPDRFSGSGSGTDFTLTISSLQPEDFATYYCQQHYSNPWTFGQGTKLEIK
binds	B21-47 (Fab, V domains shown) VH: EVQLVESGGGLVQPGGSLRLSCAASGFTFSDFYMAWVRQAPGKGLEWVANINYDGSSTYYLDSLKSRFIISRDNAKNILYLQMNSLRAEDTAVYYCAREGDEGWYFDVWGQGTTVTVSS VL: DIQMTQSPSSLSASVGDRVTITCKASQDVSTAVAWYQQKPGKAPKLLIYSASYRYTGVPDRFSGSGSGTDFTLTISSLQPEDFATYYCQQHYSNPWTFGQGTKLEIK
binds	B21-46 (Fab, V domains shown) VH: EVQLVESGGGLVQPGGSLRLSCAASGFTFSDFYMAWVRQAPGKGLEWVANINYDGSSTYYLDSLKSRFTISRDNAKNSLYLQMNSLRAEDTAVYYCAREGDEGWYFDVWGQGTTVTVSS VL: DIQMTQSPSSLSASVGDRVSITCKASQDVSTAVAWYQQKPGKAPKLLIYSASYRYTGVPDRFSGSGSGTDFTLTISSLQPEDFAVYYCQQHYSNPWTFGQGTKLEIK
binds	B21-68 (Fab, V domains shown) VH: EVQLVESGGGLVQPGGSLRLSCAASGFTFSDFYMAWVRQAPGKGLEWVANINYDGSSTYYLDSLKSRFTISRDNAKNILYLQMQSLRAEDTAVYYCAREGDEGWYFDVWGQGTTVTVSS VL: DIQMTQSPSSLSASVGDRVTITCKASQDVSTAVAWYQQKPGKAPKLLIYSASYRYTGVPSRFSGSGSGTDFTLTISSLQPEDFATYYCQQHYSNPWTFGQGTKLEIK
binds	B21-48 (Fab, V domains shown) VH: EVQLVESGGGLVQPGGSLRLSCAASGFTFSDFYMAWVRQAPGKGLEWVANINYDGSSTYYLDSLKSRFIISRDNAKNILYLQMQSLRAEDTAVYYCAREGDEGWYFDVWGQGTTVTVSS VL: DIQMTQSPSSLSASVGDRVSITCKASQDVSTAVAWYQQKPGKAPKLLIYSASYRYTGVPSRFSGSGSGTDFTLTISSLQPEDFAVYYCQQHYSNPWTFGQGTKLEIK

What follows are binders tested against biotinylated huCD137-6xHis (human) (UniProt Q07011) (assay: ELISA, Fab captured by anti-Fd, biotinylated huCD137 (y axis unlabelled, 0.00-1.75; no negative control on the sheet)).

binding	Binder
binds	B21-v15 (Fab, V domains shown) VH: EVQLVESGGGLVQPGGSLRLSCAASGFTFSDFYMSWVRQAPGKGLEWVANINYDASSTYYLDSLKGRFTISRDNAKNILYLQMNSLRAEDTAVYYCAREGDEGWYFDVWGQGTTVTVSS VL: DIQMTQSPSSLSASVGDRVTITCKASQDISTALAWYQQKPGKAPKLLIYAASYLQSGVPSRFSGSGSGTDFTLTISSLQPEDFAVYYCQQHYSNPWTFGQGTKLEIK
binds	B21-v17 (Fab, V domains shown) VH: EVQLVESGGGLVQPGGSLRLSCAASGFTFSDFYMSWVRQAPGKGLEWVANINYEGSSTYYVDSVKGRFTISRDNAKNILYLQMNSLRAEDTAVYYCAREGDEGWYFDVWGQGTTVTVSS VL: DIQMTQSPSSLSASVGDRVTITCRASQDISTAVAWYQQKPGKAPKLLIYSASYRYTGVPSRFSGSGSGTDFTLTISSLQPEDFAVYYCQQHYSNPWTFGQGTKLEIK
binds	B21-v14 (Fab, V domains shown) VH: EVQLVESGGGLVQPGGSLRLSCAASGFTFSDFYMSWVRQAPGKGLEWVANINYDASSTYYVDSLKSRFTISRDNAKNILYLQMNSLRAEDTAVYYCAREGDEGWYFDVWGQGTTVTVSS VL: DIQMTQSPSSLSASVGDRVTITCKASQDVSSAVAWYQQKPGKAPKLLIYSASYLQSGVPSRFSGSGSGTDFTLTISSLQPEDFAVYYCQQHYSNPWTFGQGTKLEIK
binds	B21-v18 (Fab, V domains shown) VH: EVQLVESGGGLVQPGGSLRLSCAASGFTFSDFYMSWVRQAPGKGLEWVANINYEGSSKYYVDSLKGRFTISRDNAKNILYLQMNSLRAEDTAVYYCAREGDEGWYFDVWGQGTTVTVSS VL: DIQMTQSPSSLSASVGDRVTITCRASQSVSTALAWYQQKPGKAPKLLIYAASSRYSGVPSRFSGSGSGTDFTLTISSLQPEDFAVYYCQQHYSNPWTFGQGTKLEIK

Each binder was assayed against Cynomolgus CD137 (4-1BB, TNFRSF9) (cynomolgus) (assay: flow cytometry, CHO cells expressing cynomolgus CD137, PE anti-human IgG-Fc).

binding	Binder
binds	CD137 #B28 (antibody, human IgG1, V domains shown) VH: QVQLQQSGPQLIRPGASVKISCKASGYSFTGYWIHWVKQRPGQGLEWIGMIDPSDSETRLNQKFKDKATLTVDKSSTTAYMQLSSPTSEDSAVFYCARYRNYGYDGFAHWGQGTLVTVSA VL: DIVMTQSPSSLTVTAGEKVTMSCKSSQSLLNSGNEKNYLAWYQQKPGQPPKLLIYWASTRESGVPDRFTGSGSGTDFTLTISSVQTEDLAVYHCQNDYSLPLTFGAGTKLELK
binds	CD137 #B30 (antibody, human IgG1, V domains shown) VH: QVQLQQSGPQLIRPGASVKISCKASGYSFTGYWIHWVKQRPGQGLEWIGMIDPSDSETRLNQKFKDKATLTVDKSSTTAYMQLSSPTSEDSAVFYCARYRNYGYDGFAHWGQGTLVTVSA VL: DIVMTQSPSSLTVTAGEKVTMSCKSSQSLLNSGNEKNYLAWYQQKPGQPPKLLIYWASTRESGVPDRFTGSGSGTDFTLTISSVQTEDLAVYHCQNDYSLPLTFGAGTKLELK
binds	CD137 #B31 (antibody, human IgG1, V domains shown) VH: QVQLQQSGPQLIRPGASVKISCKASGYSFTGYWIHWVKQRPGQGLEWIGMIDPSDSETRLNQKFKDKATLTVDKSSTTAYMQLSSPTSEDSAVFYCARYRNYGYDGFAHWGQGTLVTVSA VL: DIVMTQSPSSLTVTAGEKVTMSCKSSQSLLNSGNEKNYLAWYQQKPGQPPKLLIYWASTRESGVPDRFTGSGSGTDFTLTISSVQTEDLAVYHCQNDYSLPLTFGAGTKLELK
binds	CD137 #B27 (antibody, human IgG1, V domains shown) VH: QVQLQQSGAELVRPGASVKISCKAFGYTFTNHHINWVKQRPGQGLDWIGYINPYNDYSGYNQKFKGRATLTVDKSSNTAYMELSSLTSEDSAVYYCATPGTWEGYYFDYWGQGTTLTVSS VL: DVVMTQTPLSLPVSLGDQASISCRSSQSLVHSNGNTYLEWYLQKPGQSPKVLIYMVSNRFSGVPDRFSGSGSGTDFTLKISRVEAEDLGVYYCFQGSHIPLTFGAGTKLELK
binds	CD137 #B19 (antibody, human IgG1, V domains shown) VH: QVQLKQSGPGLVPPSQSLSITCTVSGFSLSSYGVHWVRQSPGKGLEWLGVIWSGGNTDFNAAFVSRLSISTEISESQVFFRMNSLQADDTAIYYCARNGPQYYFAMDYWGQGTSVTVSS VL: DIVLTQSPASLTVSLGQRATISCRANKSVSTSGYSYMHWHQQKPGQPPKLLIYLASNLESGVPARFSGSGSGTDFTLNIHPVEEEDAATYYCQHSRELPLTFGAGTKLELK
binds	CD137 #B13 (antibody, human IgG1, V domains shown) VH: QVQLQQPGAELVKPGASVKLSCKASGYTFTNFWINWVKQRPGQALEWIGNIYPGNDNTNYNGNFKTKATLTVDRSSSTAYMHLSSLTSKDSAVYYCARGQLGLDYWGQGTTLTVSS VL: DILLTQSPAILSVSPGERVSFSCRASQNIGTTIHWYHQRTNGSPRLLIKFASESISGIPSRFSGSGSGTDFTLSINSVESEDFADYYCQQSNSWPFTFGSGTKLEIK
binds	CD137 #B20 (antibody, human IgG1, V domains shown) VH: EVKLVESEGGLVQPGSSMKLSCTASGFTFSDFYMAWVRQVPEKGLEWVANINYDGSSTYYLDSLKSRFIISRDNARNILYLQMSSLKSEDTATYYCAREGDEGWYFDVWGAGTTVTVSS VL: DIVMTQSHKFMSTSVGDRVSITCKASQDVSTAVAWYQQKPGQSPKLLIYSASYRYTGVPDRFTGSGSGTDFTFTISSVQAEDLAVYYCQQHYSNPWTFGGGTKLEIK
binds	CD137 #B21 (antibody, human IgG1, V domains shown) VH: EVKLVESEGGLVQPGSSMKLSCTASGFTFSDFYMAWVRQVPEKGLEWVANINYDGSSTYYLDSLKSRFIISRDNARNILYLQMSSLKSEDTATYYCAREGDEGWYFDVWGAGTTVTVSS VL: DIVMTQSHKFMSTSVGDRVSITCKASQDVSTAVAWYQQKPGQSPKLLIYSASYRYTGVPDRFTGSGSGTDFTFTISSVQAEDLAVYYCQQHYSNPWTFGGGTKLEIK
binds	CD137 #B17 (antibody, human IgG1, V domains shown) VH: EVQLQQSGPELVKPGASVKMSCKASGYTFTYYVMHWVKQKPGQGLEWIGYINPYNDGTKYNEKFKGKATLTSDKSSSTAYMELSSLTSEDSAVYYCAPGSVDYWGQGTTLTVSS VL: DIVMTQSQKFMSTSVGDRVSITCKASQNVGTSVAWYQQKSGHSPKLLIYSASNRNTGVPDRFTGSGSGTDFTLTISNMQSEDLADYFCQQYSTYPLTFGSGTKLEIK

From patent US20250136720A1
